The nature of the assay: qHTS Assay for Modulators of Lamin A Splicing. The conditions noted are these: HeLa LMNA splicing GFP/RFP minigene ratio, 48 h. The essentials: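 S3 HeLa stable clones carrying a lamin A-EGFP splicing minigene plus DsRed2 were seeded at 600 cells/well in Opti-MEM with 2% FBS, pin-dosed and incubated 48 h at 37°C. Acumen cytometry (488 nm) gave the GFP/RFP total-intensity ratio.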
For orientation: Quantitative high-throughput screening tests each substance at several concentrations.

[1] abbreviates: measured here: RFP viability control channel.
[2] abbreviates: measured here: GFP splicing reporter channel.

The structures appear in SMILES notation. This is one part of the list. Further columns of the screen follow, without active or inactive calls. Compounds called inactive in the main read-out are mostly missing here. Potencies come from curve fits of mixed quality, noted in brackets.

Regarding `Cc1ccc(Cl)cc1NC(=S)NCCCSC1CCCCC1`, under setting [1], the AC50 – broadly, the midpoint of the concentration-response curve, whichever way the signal moves – was 12.6 µM [falling, partial curve].

Regarding `O=C(NCc1cn(-c2ccccc2)nc1-c1ccccc1)c1cccc([N+](=O)[O-])c1`, under setting [1], the half-maximal activity concentration (AC50) was 17.8 µM [rising, single point].

As to `Cc1cc(C)n(-c2ccc(C(=O)Nc3ccccc3N3CCOCC3)cc2)n1`, the AC50 under setting [2] is 14.1 µM [falling, single point].

In the case of `Cc1cc(=O)[nH]c(SCC(=O)OCc2ccccc2)c1C#N`, the AC50 under setting [2] is 0.316 µM [falling, full curve].

Take `CCOC(=O)c1sc2nc(CC(=O)OC)nc(NCc3ccc(Cl)cc3)c2c1C`: the concentration at half-maximal activity (AC50) under setting [1] was 5.62 µM [rising, single point].

Regarding `CCCOc1ccc(NC(=O)CC2C(=O)N(CC)C(=S)N2Cc2cccs2)cc1` (centres undefined), the AC50 reads like this: under setting [2], 28.2 µM [falling, single point]; under setting [1], 35.5 µM [falling, partial curve].

As to `O=C(Cc1ccc(F)cc1)N1CCN=C1SCc1ccc([N+](=O)[O-])cc1`, the AC50 under setting [1] was 5.01 µM [rising, partial curve, poor fit].

Take `C=CCOC(=O)C1=C(C)NC(SC)=C(C#N)C1c1ccc(OCC)cc1` (centres undefined): under setting [1], the AC50 was 12.6 µM [rising, partial curve, poor fit].

Turning to `Cc1cccc(N2CCN(C(=O)c3cc4ccc5cccnc5c4[nH]3)CC2)c1C`, the AC50 under setting [2] was 3.16 µM [falling, single point].

As to `CCOc1ccc2nc(NC(=O)c3cc([N+](=O)[O-])ccc3N3CCOCC3)sc2c1`, the AC50 under setting [2] is 12.6 µM [rising, single point] and the AC50 under setting [1] is 31.6 µM [rising, single point].

On to `C/C(N)=C(/C#N)C(=O)COC(=O)CNS(=O)(=O)c1ccc(F)c(F)c1F`, for which the AC50 runs as follows: under setting [2], 35.5 µM [falling, partial curve, poor fit]; under setting [1], 0.0355 µM [falling, full curve].

For `O=C(c1cccc(S(=O)(=O)N2CCCC2)c1)c1cccc(S(=O)(=O)N2CCCC2)c1`, the AC50 under setting [2] is 5.62 µM [rising, full curve] and the AC50 under setting [1] is 11.2 µM [rising, partial curve].

As to `O=C(NC(=S)Nc1nc(-c2ccccc2)cs1)c1ccco1`, under setting [2], the AC50 is 0.562 µM [rising, partial curve].

Take `O=C(O)C1OC(Oc2cc3oc(-c4ccccc4)cc(=O)c3c(O)c2O)C(O)C(O)C1O` (centres undefined): under setting [2], the AC50 is 0.708 µM [falling, full curve, poor fit].

Regarding `Clc1ccccc1CNCCCSc1nnnn1-c1ccccc1`, the half-maximal activity concentration (AC50) was 0.1 µM [falling, full curve] under setting [2] and 0.0631 µM [falling, full curve, poor fit] under setting [1].

Consider `O=c1c2ccc([N+](=O)[O-])cc2ncn1CCOc1ccccc1`, for which the AC50 under setting [2] was 35.5 µM [falling, single point].

Turning to `CCC(CC)NC(=O)CO/N=C/c1ccccc1OC(F)F`, under setting [1], the AC50 was 0.00398 µM [falling, partial curve, poor fit].

With `CC(=O)N1N=C(c2ccccc2)CC1c1cn(C)c2ccccc12` (centres undefined), the AC50 under setting [1] was 14.1 µM [rising, single point].

On to `O=c1cc(N2CCCCC2)c(-c2ccccc2)nn1Cc1ccc(Cl)cc1`, for which the AC50 is 17.8 µM [falling, single point] under setting [2] and 20 µM [falling, partial curve] under setting [1].

For `Cc1cc(C)cc(N2C(=O)CSC23C(=O)N(CC(N)=O)c2ccccc23)c1` (centres undefined), the half-maximal activity concentration (AC50) under setting [2] was 1 µM [falling, single point].

For `O=C(O)c1cc(NS(=O)(=O)c2ccc(NC3CCCCC3)c([N+](=O)[O-])c2)cc(C(=O)O)c1`, the AC50 under setting [1] is 0.0224 µM [rising, full curve, poor fit].

With `CC1(C)C(c2ccc(Cl)cc2)=[N+]([O-])C2(CCCC/C2=N\O)N1O` (centres undefined), the AC50 under setting [1] was 1 µM [falling, full curve, poor fit].

As to `CCOC(=O)C1=C(Cc2ccc(C)cc2)C(=O)c2ccccc2C1=O`, the AC50 is 12.6 µM [falling, single point] under setting [2] and 7.08 µM [rising, partial curve] under setting [1].

Take `COCCN(Cc1ccc(C)c(Br)c1)S(=O)(=O)c1ccc2[nH]c(=O)ccc2c1`: the AC50 under setting [1] was 8.91 µM [falling, partial curve].

With `Cc1cc(C(C)(C)C)oc1C(=O)N(CC(=O)NC1CCCC1)Cc1ccccc1Cl`, the AC50 under setting [1] was 20 µM [rising, single point].

On to `COc1ccc(-c2cc(C(F)(F)F)nc(S(=O)(=O)CCCC(=O)Nc3cc(C)on3)n2)cc1OC`, for which the AC50 under setting [2] is 0.355 µM [falling, partial curve].

In the case of `c1ccc2c(c1)OCC(CNc1ncnc3sccc13)O2` (centres undefined), the AC50 by setting is: under setting [2], 0.224 µM [rising, full curve, poor fit]; under setting [1], 0.447 µM [rising, full curve].

For `CN(c1cccc(NC(=O)CN(c2cccc(Cl)c2)S(=O)(=O)c2ccc(Cl)cc2)c1)S(C)(=O)=O`, the AC50 under setting [1] is 15.8 µM [rising, single point].

Take `NNc1nc2ccc(F)cc2s1`: the AC50 under setting [1] is 5.62 µM [rising, single point].

For the compound `COc1ccc(NC(=O)NC23CC4(C)CC(C)(CC(C)(C4)C2)C3)cc1`, under setting [1], the AC50 is 7.08 µM [rising, full curve, poor fit].

Consider `C=CCN1C(c2ccc(Br)cc2)=CS/C1=C(/C#N)c1nnc(N2CCOCC2)n1-c1ccccc1`, for which the AC50 is 31.6 µM [rising, single point] under setting [2] and 25.1 µM [rising, single point] under setting [1].

Take `CCC(C)[C@H](NC(=O)N1CCN(c2cccc(C(F)(F)F)c2)CC1)C(=O)OC` (some centres undefined): the AC50 under setting [1] is 10 µM [rising, partial curve, poor fit].

`COc1ccc(/C=C/C(=O)c2ccccc2)cc1COc1ccccc1F`: the AC50 reads like this: under setting [2], 15.8 µM [falling, partial curve]; under setting [1], 17.8 µM [falling, partial curve].

As for `O=C(N/N=C/c1ccc(OCc2cnc(Cl)s2)cc1)c1ccncc1`, the concentration at half-maximal activity (AC50) under setting [1] was 0.00355 µM [falling, full curve, poor fit].

Regarding `CC(C)OCCCN1CN(S(=O)(=O)c2ccc(Cl)cc2)c2nc3ccccc3nc21`, the AC50 under setting [1] is 35.5 µM [rising, single point].

Regarding `CC(OC(=O)c1cccc(S(=O)(=O)Nc2cccc(C(F)(F)F)c2)c1)C(=O)Nc1ccc2c(c1)OCCO2` (centres undefined), the half-maximal activity concentration (AC50) under setting [1] was 14.1 µM [rising, single point].

For the compound `CCOC(=O)C1=C[C@@]2(CC)CCCN3CCc4c(n1c1ccccc41)[C@H]32`, the AC50 by setting is: under setting [2], 0.00631 µM [falling, full curve]; under setting [1], 0.00355 µM [falling, full curve, poor fit].

In the case of `COc1ccc(Cl)cc1Nc1nc(N)nc(C(F)(F)F)n1`, the AC50 under setting [2] is 7.08 µM [rising, full curve, poor fit].

Regarding `COc1ccc(C)cc1-n1c(SCC(=O)NCc2ccco2)nc2c([nH]c3ccccc32)c1=O`, the AC50 under setting [2] was 10 µM [falling, partial curve, poor fit].

Turning to `CNCCC=C1c2ccccc2C=Cc2ccccc21`, the AC50 under setting [2] was 0.158 µM [falling, full curve, poor fit] and the half-maximal activity concentration (AC50) under setting [1] is 6.31 µM [falling, single point].

In the case of `COc1cccc(C(=O)NNC(=S)NC2CCCCC2)c1`, under setting [1], the half-maximal activity concentration (AC50) was 14.1 µM [rising, single point].

Take `O=C(CSc1nnc2ccc3ccccc3n12)N1CCOCC1`: the AC50 runs as follows: under setting [2], 0.0316 µM [falling, full curve, poor fit]; under setting [1], 0.0224 µM [falling, full curve, poor fit].

For `Cc1ccc(Cn2ncc3c(N4CCN(c5ccccc5C)CC4)ncnc32)cc1`, the concentration at half-maximal activity (AC50) under setting [1] is 10 µM [rising, partial curve].

As to `O=[N+]([O-])/C(=C\Nc1ccccc1)S(=O)(=O)c1ccccc1`, the half-maximal activity concentration (AC50) under setting [2] was 4.47 µM [falling, single point].

Consider `Cc1ccc(CCNC(=O)CCCn2c(=O)c3cccn3c3ccc(F)cc32)cc1`, for which the AC50 is 2.82 µM [falling, single point] under setting [2] and 35.5 µM [falling, single point] under setting [1].

As to `COc1ccc2nc(NCCCNC(=O)c3cc(OC)c(OC)c(OC)c3)c(C#N)cc2c1`, under setting [1], the AC50 is 7.08 µM [rising, partial curve].

On to `Clc1ccccc1/C=N/NC1=Nc2cccc3cccc1c23`, for which the AC50 under setting [1] was 0.158 µM [rising, full curve, poor fit].

Turning to `NCC(=O)CCC(=O)O`, the AC50 was 5.01 µM [rising, partial curve, poor fit] under setting [2] and 0.000794 µM [rising, full curve, poor fit] under setting [1].

In the case of `Cc1ccc(C(=O)N/C(=C\C=C\c2ccccc2)C(=O)NCc2ccco2)cc1`, the AC50 by setting is: under setting [2], 31.6 µM [rising, single point]; under setting [1], 31.6 µM [rising, single point].

Regarding `NC(=O)C[C@@H]1NC(=O)c2cc([N+](=O)[O-])cc(F)c2NCCCC[C@@H](C(N)=O)NC(=O)[C@H](CO)NC1=O`, the AC50 under setting [2] is 0.00501 µM [falling, full curve, poor fit] and the AC50 under setting [1] is 0.00501 µM [falling, full curve, poor fit].

On to `COc1ccc(N(C)S(=O)(=O)c2cccc(C(=O)NC3CCC(C)CC3)c2)cc1` (centres undefined), for which the concentration at half-maximal activity (AC50) was 0.355 µM [falling, partial curve, poor fit] under setting [2] and 0.0447 µM [falling, full curve, poor fit] under setting [1].

In the case of `CCOC(=O)c1ccc(NC(=S)N(CCN2CCCCCC2)Cc2cccs2)cc1`, under setting [2], the half-maximal activity concentration (AC50) was 17.8 µM [falling, single point].

For `COC(=O)c1cccc(NC(=O)c2nn(C)c(=O)c3ccccc23)c1`, the AC50 under setting [2] was 35.5 µM [rising, single point].

`O=C(CNC(=O)c1ccc(Cl)cc1)NCC(F)(F)F`: under setting [2], the AC50 was 6.31 µM [rising, partial curve, poor fit].

As for `C/C(=N\Nc1cccc2cccnc12)c1ccc[nH]1`, the AC50 by setting is: under setting [2], 0.2 µM [rising, full curve]; under setting [1], 14.1 µM [rising, partial curve, poor fit].

Values taken from PubChem BioAssay AID1487 (National Center for Advancing Translational Sciences (NCATS), 2009).
